{
  "source": "patent US8299238B2",
  "about": "“Steroidogenesis modified cells and methods for screening for endocrine disrupting chemicals” (University of Saskatchewan, priority 2009, dated 2012)",
  "note": "Entries after “also recorded” stand apart in the source; their conditions may differ.",
  "data": [
    {"system": "H295R/CYP17-KD cells", "assay": "Steroid production of CYP17A-KD H295R cells", "type": "cell-based, human", "settings": "FIG. 5", "values": [
      {"compound": "C[C@]12CCC(=O)C=C1CC[C@@H]1[C@@H]2CC[C@]2(C)C(=O)CC[C@@H]12", "note": "[Androstenedione]", "Production in CYP17A knockdown H295R compared to control": "less production; also recorded: significantly reduced"},
      {"compound": "C[C@]12CC[C@H]3[C@@H](CCC4=CC(=O)CC[C@@]43C)[C@@H]1CC[C@@H]2O", "note": "[Testosterone (T), Testosterone]", "Production in CYP17A knockdown H295R compared to control": "less production"},
      {"compound": "C[C@]12CC[C@H]3[C@@H](CCC4=CC(=O)CC[C@@]43C)[C@@H]1CC[C@@H]2C(=O)CO", "note": "[21a Hydroxyprogesterone]", "Production in CYP17A knockdown H295R compared to control": "increased production; also recorded: significantly enhanced"}
    ]}
  ]
}
